# These are yes or no findings as the source states them, for the method shown. Binding seen in cells or lysates may run through a third protein. A yes stands for co-enrichment or nearness to the bait. Other partners may have been found. A no says only that the protein was not detected with the bait. Sequences can lack the tags named with a protein.
# T1: WT TRAP1 with C-terminal HA tag (pcDNA3.1 (+) MTS-HA vector) (human), Q12931
# T1 chain: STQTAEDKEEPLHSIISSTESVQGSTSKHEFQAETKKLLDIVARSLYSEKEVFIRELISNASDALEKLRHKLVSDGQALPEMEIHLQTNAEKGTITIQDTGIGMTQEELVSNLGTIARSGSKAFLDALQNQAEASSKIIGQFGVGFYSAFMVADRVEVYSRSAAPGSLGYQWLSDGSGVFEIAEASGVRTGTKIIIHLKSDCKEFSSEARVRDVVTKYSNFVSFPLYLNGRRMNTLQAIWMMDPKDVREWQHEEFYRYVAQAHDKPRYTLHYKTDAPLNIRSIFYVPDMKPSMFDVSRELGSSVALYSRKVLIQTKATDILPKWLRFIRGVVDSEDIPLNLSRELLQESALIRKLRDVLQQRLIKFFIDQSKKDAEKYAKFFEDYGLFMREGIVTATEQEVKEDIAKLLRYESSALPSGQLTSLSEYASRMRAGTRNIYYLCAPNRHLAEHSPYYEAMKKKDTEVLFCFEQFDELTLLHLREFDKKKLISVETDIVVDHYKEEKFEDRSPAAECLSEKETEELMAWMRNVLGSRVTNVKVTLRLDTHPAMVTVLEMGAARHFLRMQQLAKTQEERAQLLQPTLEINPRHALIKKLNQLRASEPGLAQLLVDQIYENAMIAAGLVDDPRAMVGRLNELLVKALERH
# Target: T1, WT TRAP1 with C-terminal HA tag …
# Assay: affinity purification with mass spectrometry
# Details: remark: other sources report otherwise
binder,measurement,value
"PINK1, Q9BXM7 78-581 (protein) AARLQRQFVVRAWGCAGPCGRAVFLAFGLGLGLIEEKQAESRRAVSACQEIQAIFTQKSKPGPDPLDTRRLQGFRLEEYLIGQSIGKGCSAAVYEATMPTLPQNLEVTKSTGLLPGRGPGTSAPGEGQERAPGAPAFPLAIKMMWNISAGSSSEAILNTMSQELVPASRVALAGEYGAVTYRKSKRGPKQLAPHPNIIRVLRAFTSSVPLLPGALVDYPDVLPSRLHPEGLGHGRTLFLVMKNYPCTLRQYLCVNTPSPRLAAMMLLQLLEGVDHLVQQGIAHRDLKSDNILVELDPDGCPWLVIADFGCCLADESIGLQLPFSSWYVDRGGNGCLMAPEVSTARPGPRAVIDYSKADAWAVGAIAYEIFGLVNPFYGQGKAHLESRSYQEAQLPALPESVPPDVRQLVRALLQREASKRPSARVAANVLHLSLWGEHILALKNLKLDKMVGWLLQQSAATLLANRLTEKCCVETKMKMLFLANLECETLCQAALLLCSWRAAL",binding,no binding

# Source: publication doi:10.1101/679431
